Test results reported in patent US20230054895A1, “METHODS FOR INDUCING BIOSTASIS IN A CELL, TISSUE OR ORGAN” (PRESIDENT AND FELLOWS OF HARVARD COLLEGE, priority 2020, published 2023).
Entries after “also recorded” stand apart in the source; their conditions may differ.

System: Xenopus tadpoles
Assay: Oxygen consumption of Xenopus tadpoles and embryos
Type: in vivo, Xenopus laevis
Description: Dynamic drug dosing used to examine stasis control parameters (10 tadpoles/chamber, n=3 replicates).
The oxygen consumption assay described herein above was used.

`COc1cc2c(cc1OC)C(=O)C(CC1CCN(Cc3ccccc3)CC1)C2` (centres unmarked) [Donepezil, 2-((1-Benzylpiperidin-4-yl)methyl)-5,6-dimethoxy-2,3-dihydro-1H-inden-1-one] was tested, and the oxygen consumption (compared to 1×Tricaine anesthetic control) was “markedly reduced oxygen consumption; also recorded: reduced oxygen consumption in Xenopus tadpoles greater than treatment with 1×Tricaine” and the oxygen consumption (compared to vehicle control) was “markedly reduced oxygen consumption”.
